Reference: US10653651B2, “Kit for treating cancer with low molecular weight components of aurin tricarboxylic acid complex” (Aurin Biotech Inc., priority 2014, dated 2020)
At least one structure is not confirmed: it was looked up by name or label, or the drawing left a doubt.

How the values were obtained:
Assay type in all cases: cell-based, human
Factor H [1] = assay: Western blot of Factor H expression in BxPC-3 cells; conditions: 10 μM, 1 day, cell extract
Experimental: (§1) Experiment 2 was designed to determine the effect of ATA, AQA, and AHA on the expression and release of Factor H and VEGF by U251 cells. Cells were grown in DMEM for 24 h at 37° C., after which ATA, AQA, or AHA was added to the medium at a final concentration of 10 μM and incubation carried out for a further 24 h. The medium was drawn off, and the cells washed with PBS. Lysis buffer was then added to the cells. Forty microliters of the cell lysate, or the supernatant media, were loaded onto 12% polyacrylamide gels and separated under non-reducing conditions (70 V, 3-6 h). Following SDS-PAGE, proteins were transferred to a PVDF membrane (Bio-RadTM, CA) at 30 mA for 2 h. The membranes were blocked with 5% milk in PBS-T (80 mM Na2HPO4, 20 mM NaH2PO4, 100 mM NaCl, 0.1% Tween 20, pH 7.4) for 1 h, and incubated overnight at 4° C. with primary antibodies for Factor H (CytotechTM, goat 1/1000) and for VEGF (MilliporeTM, rabbit 1/2000). The membranes were then washed 3 times with PBST. They were then treated with an appropriate horseradish peroxidase (HRP)-conjugated secondary antibody for 3 h at room temperature. The secondary antibodies were anti-rabbit IgG (P0448, DAKOTM, Mississauga, Ontario, CA, 1/2,000) and anti-goat IgG (A[…], MilliporeTM, Billerica, Ma, 1/3,000). […]

BxPC-3 cells = assay: DNA laddering (apoptosis) in BxPC-3 cells; conditions: 10 μM, 1 day, agarose gel
Experimental: (§2) For determination of DNA laddering, which is indicative of DNA disintegration, cells were precipitated by centrifugation, washed, and lysed with […] Tris-HCl, 5 mM EDTA, and 3% Triton-X-100. The lysates were incubated at 37° C. for 1 h and then centrifuged at 12,000g for 10 min. They were treated with phenol/chloroform/isoamylalcohol (25:24:1) and chloroform/isoamylalcohol (24:1) twice each, and precipitated with 0.6 volume isopropyl alcohol and 0.1 volume 3 M sodium actate at −20° C. for 30 min. The precipitates were centrifuged at 12,000 g for 20 min, washed with 70% ethanol and dissolved with TE buffer containing 2 μg/mL bovine RNase. DNAs were electrophoresed in 10 μg/mL ethidium bromide containing 2% w/v agarose gel.

A549 cells = assay: DNA laddering (apoptosis) in A549 cells; conditions: 10 μM, 1 day, agarose gel
Experimental: as §2
The protocol was identical to that used in Experiment 7 except A549 cells were used.

Factor H [2] = assay: Western blot of Factor H expression in A549 cells; conditions: 10 μM, 1 day, cell extract
Experimental: (§3) Experiment 2 was designed to determine the effect of ATA, AQA, and AHA on the expression and release of Factor H and VEGF by U251 cells. Cells were grown in DMEM for 24 h at 37° C., after which ATA, AQA, or AHA was added to the medium at a final concentration of 10 μM and incubation carried out for a further 24 h. The medium was drawn off, and the cells washed with PBS. Lysis buffer was then added to the cells. Forty microliters of the cell lysate, or the supernatant media, were loaded onto 12% polyacrylamide gels and separated under non-reducing conditions (70 V, 3-6 h). Following SDS-PAGE, proteins were transferred to a PVDF membrane (Bio-Rad™, CA) at 30 mA for 2 h. The membranes were blocked with 5% milk in PBS-T (80 mM Na2HPO4, 20 mM NaH2PO4, 100 mM NaCl, 0.1% Tween 20, pH 7.4) for 1 h, and incubated overnight at 4° C. with primary antibodies for Factor H (Cytotech™, goat 1/1000) and for VEGF (Millipore™, rabbit 1/2000). The membranes were then washed 3 times with PBST. They were then treated with an appropriate horseradish peroxidase (HRP)-conjugated secondary antibody for 3 h at room temperature. The secondary antibodies were anti-rabbit IgG (P0448, DAKO™, Mississauga, Ontario, CA, 1/2,000) and anti-goat IgG (AP106P, Millipore™, Billerica, Ma, 1/3,000). […]

Factor H [3] = assay: Western blot of Factor H expression in U251 cells; conditions: 10 μM, 1 day, cell extract
Experimental: as §1

VEGF [4] = assay: Western blot of VEGF expression and release by U251 cells; conditions: 10 μM, 1 day
Experimental: as §1

VEGF [5] = assay: Western blot of VEGF expression and release by A549 cells; conditions: 10 μM, 1 day
Experimental: as §3

U251 cells = assay: DNA laddering (apoptosis) in U251 cells; conditions: 10 μM, 1 day, agarose gel
Experimental: as §2

VEGF [6] = assay: Western blot of VEGF expression and release by BxPC-3 cells; conditions: 10 μM, 1 day
Experimental: as §1

For `O=C(O)C1=CC(=C(c2ccc(O)c(C(=O)O)c2)c2ccc(O)c(C(=O)O)c2)C=CC1=O` [ATA, aurin tricarboxylic acid], the “expression of Factor H in BxPC-3 cells” value (Factor H [1]) was “reducing expression”, the “DNA fragmentation (180 bp laddering) in BxPC-3 cells” value (BxPC-3 cells) was “induced DNA fragmentation” and the “DNA fragmentation (180 bp laddering) in A549 cells” value (A549 cells) was “induced DNA fragmentation”. The “expression of Factor H in A549 cells” value (Factor H [2]) was “reduced expression”, the “expression of Factor H in U251 cells” value (Factor H [3]) was “reducing expression” and the “expression of vascular endothelial growth factor (VEGF) in U251 cells” value (VEGF [4]; cell extract) was “reducing expression”. The “release of VEGF into the extracellular milieu by U251 cells” value (VEGF [4]; supernatant) was “reducing release”, the “expression of vascular endothelial growth factor (VEGF) in A549 cells” value (VEGF [5]; cell extract) was “reduced expression” and the “release of VEGF into the extracellular milieu by A549 cells” value (VEGF [5]; supernatant) was “reducing release”. For the same compound, the “DNA fragmentation (180 bp laddering) in U251 cells” value (U251 cells) was “induced DNA fragmentation”, the “expression of vascular endothelial growth factor (VEGF) in BxPC-3 cells” value (VEGF [6]; cell extract) was “reducing expression” and the “release of VEGF into the extracellular milieu by BxPC-3 cells” value (VEGF [6]; supernatant) was “reducing release”.
